{"sequences": {"note": "Chains of the proteins cited; added tags and fusions are not shown.", "UniProt P24462, whole entry": "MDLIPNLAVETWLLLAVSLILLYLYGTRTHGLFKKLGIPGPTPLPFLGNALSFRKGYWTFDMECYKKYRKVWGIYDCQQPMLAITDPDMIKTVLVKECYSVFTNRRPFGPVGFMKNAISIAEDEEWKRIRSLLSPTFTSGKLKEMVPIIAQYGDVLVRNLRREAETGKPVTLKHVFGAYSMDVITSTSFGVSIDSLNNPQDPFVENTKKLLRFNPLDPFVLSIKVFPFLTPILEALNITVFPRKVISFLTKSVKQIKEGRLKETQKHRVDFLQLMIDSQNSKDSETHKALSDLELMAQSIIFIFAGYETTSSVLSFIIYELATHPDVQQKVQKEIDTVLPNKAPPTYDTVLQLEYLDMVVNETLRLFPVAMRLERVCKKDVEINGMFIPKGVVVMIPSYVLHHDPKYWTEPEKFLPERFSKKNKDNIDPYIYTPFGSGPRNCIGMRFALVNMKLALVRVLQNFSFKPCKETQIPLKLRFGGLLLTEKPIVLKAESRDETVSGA"}, "source": "PubChem BioAssay (NCATS)", "key": {"[1]": {"target": "Cytochrome P450 3A7 (Homo sapiens) (UniProt P24462)", "experiment": "Cytochrome P450 family 3 subfamily A member 7 (CYP3A7) small molecule antagonists: luciferase qHTS assay (AID 1963596; further: nearly all actives have a fitted effect of over 40% in size)", "details": "P450-Glo CYP3A7 enzyme luminescence, 1 h", "source_text": "National Center for Advancing Translational Sciences [NCATS] Assay Overview: Cytochrome P450 (CYP) enzymes are membrane-bound hemeproteins that play a key role in metabolism of drugs and xenobiotics. The CYP3A subfamily is the most abundant, representing 30% of the total adult hepatic CYP content, whereas CYP3A7 is found predominantly in human fetal liver and accounts up to 50% of the total fetal hepatic CYP content. Testing the effect of chemicals on CYP isozymes is useful to minimize the adverse drug reactions and toxicities in the drug development process. Chemicals were tested for their effect on CYP enzyme activities by using P450-Glo (TM) screening systems (Promega Corporation, Madison, WI). […] The luciferin products formed are detected with a luciferin detection reagent, and the amount of light produced is proportional to CYP activity. […]\nAssay Protocol Summary: Two ul of enzyme-substrate mix was dispensed into medium binding white/solid 1536-well plates (Greiner Bio-One North America Inc., Monroe, NC) using a Flying Reagent Dispenser (FRD, Aurora Discovery, San Diego, CA). […] The reaction was stopped by adding 4 ul of detection reagent using an FRD and after 20 min incubation at room temperature the luminescence signal was measured using a ViewLux plate reader (Perkin Elmer, Shelton, CT). Data were expressed as relative luminescence units."}, "[2]": {"experiment": "Viability qHTS for spleen associated tyrosine kinase inhibitor (SYKi) naive MV4-11 cells (AID 1963823); further: nearly all actives have a fitted effect of over 40% in size", "details": "MV4-11 AML viability, CellTiter-Glo luminescence, 72 h", "source_text": "Department of Medicine, Hematology/Oncology\nUniversity Hospital Frankfurt, Germany.\nTrials have shown promising clinical activity of the selective SYK inhibitor entospletinib in patients with high expressing HOXA9/MEIS1 acute leukemias. As the development of resistance mechanisms is a common problem in the use of targeted drugs, we performed a chemical library screen to identify drug sensitivities in SYK inhibitor resistant AML cells. […] Glucocorticoids are potent immunosuppressants which work in part by inhibiting the transcription of cytokine genes.\nDescribed herein is a viability screen to look for activity in the SYK inhibitor naive cell line against four NCATS compound libraries (MIPE 5.0, NPC, NPACT, and Kinase) totaling 11372 compounds. Active hits were reacquired for confirmation and further secondary assay testing.\nSEQUENCE No. (e.g., 1, 2, 3, etc.); […] (e.g., Cells, Incubation, Reagent, etc.); VALUE; DESCRIPTION.\n1; Media; 2uL; white, solid-bottom Corning assay plate.\n2; Compounds; 23nL; Echo acoustic dispenser.\n3; Cell; 5uL; 500 cells per well. […]\n7; Detection; Luminescence; ViewLux plate reader (PerkinElmer). […]\n1. Quantitative high-throughput screening (qHTS) of small molecule compounds was conducted on naive SYKi MV4-11 cell line. […]\n5. Viability was assessed by adding 3uL of CellTiter-Glo detection reagent (Promega). […]\n7. Luminescence was measured on a ViewLux plate reader (PerkinElmer)."}, "[3]": {"experiment": "Cellular viability qHTS for adrenocortical cancer (ACC) cell line SW-13 (AID 1963989); further: nearly all actives have a fitted effect of over 65% in size", "details": "SW-13 ACC cells viability, CellTiter-Glo, 48 h", "source_text": "(§1) PI: Naris Nilubol, MD Surgical Oncology Program, National Cancer Institute (NCI) National Institute of Health (NIH), Bethesda, Maryland Adrenocortical cancer (ACC) is a rare malignancy with poor survival outcomes and few treatment options. Currently, mitotane is the only FDA-approved therapy for ACC. Although adjuvant radiation therapy is rarely utilized, it has the potential to improve survival in select cases. Through a quantitative high-throughput drug screen (qHTS), we identified auranofin (AF), a thioredoxin reductase (TXNRD) inhibitor, as a promising candidate drug. This study aims to evaluate whether AF can enhance the efficacy of radiation therapy in the treatment of ACC. Two human ACC cell lines, SW-13 and NCI-H295R, were screened using the National Center for Advancing Translational Sciences (NCATS) Pharmaceutical Collection (NPC) and the Mechanism Interrogation PlatE (MIPE) library (~4,991 compounds). […]\n(§2) PROTOCOL TABLE (as described by Inglese J, Shamu CE and Guy RK. 2007) SEQUENCE No. (e.g., 1, 2, 3, etc.); […] […] 7; Detection; Luminescence; ViewLux plate reader NOTES (numbers refer to Sequence numbers above) 1. […] After incubation, luminescence was measured using a ViewLux plate reader (PerkinElmer, Waltham, MA, USA) with a clear filter was used to measure the number of metabolically competent cells. […]"}, "[4]": {"experiment": "Cellular viability qHTS for adrenocortical cancer (ACC) cell line NCI-H295R (AID 1963990)", "details": "CellTiter-Glo ATP luminescence, 48 h", "source_text": "as §1, §2"}}, "note": "Only results without a clear call are listed here; the source files them as inconclusive. The call rests on the fitted dose curve; in most records, active means well fitted curve in the direction sought with a large enough effect; inconclusive means small, poorly fitted or top-dose-only effect, or another doubt; inactive means no such curve, though single readings can be large; an effect the other way counts as inactive or inconclusive. Some salts and complexes are drawn in separate pieces, as the source files them; their charges need not balance. Potency means the concentration at half of the fitted maximal effect.", "data": [{"smiles": "O=[N+]([O-])OCC(CO[N+](=O)[O-])(CO[N+](=O)[O-])CO[N+](=O)[O-]", "values": [{"measurement": "Potency", "setting": "[1]", "value": "inconclusive: 10 µM"}]}, {"smiles": "CCOP(=O)(CC)Oc1ccc([N+](=O)[O-])cc1", "note": "(stereo unspecified)", "values": [{"measurement": "Potency", "setting": "[2]", "value": "inconclusive: 0.231 µM"}]}, {"smiles": "Cc1cccc([N+](=O)[O-])c1[N+](=O)[O-]", "values": [{"measurement": "Potency", "setting": "[2]", "value": "inconclusive: 0.0013 µM"}]}, {"smiles": "C/C1=C2/N=C(C(CC(N)=O)C2(C)CCC(=O)NCC(C)OP(=O)([O-])OC2C(CO)OC(n3cnc4cc(C)c(C)cc43)C2O)C2(C)N=C(/C(C)=C3N=C(/C=C4N=C1C(CCC(N)=O)C\\4(C)C)C(CCC(N)=O)C/3(C)CC(N)=O)C(CCC(N)=O)C2(C)CC(N)=O.[C-]#N.[Co]", "note": "(stereo unspecified)", "values": [{"measurement": "Potency", "setting": "[3]", "value": "inconclusive: 25.1 µM"}]}, {"smiles": "C/C1=C2N=C(/C=C3N=C(/C(C)=C4\\[N-][C@@](C)([C@@H]5N=C1[C@](C)(CCC(=O)NC[C@@H](C)OP(=O)([O-])O[C@H]1[C@@H](O)[C@@H](n6cnc7cc(C)c(C)cc76)O[C@@H]1CO)[C@H]5CC(N)=O)[C@@](C)(CC(N)=O)[C@@H]4CCC(N)=O)[C@@](C)(CC(N)=O)[C@@H]\\3CCC(N)=O)C(C)(C)[C@@H]/2CCC(N)=O.[C-]#N.[Co+3]", "values": [{"measurement": "Potency", "setting": "[3]", "value": "inconclusive: 20.6 µM"}]}, {"smiles": "O=[N+]([O-])c1cccc([N+](=O)[O-])c1", "values": [{"measurement": "Potency", "setting": "[4]", "value": "inconclusive: 1.58 µM"}]}]}
